The test system of this assay is Lactobacillus acidophilus (BB1). Kind of assay: MIC by resazurin micro-titre method. Format: cell-based. The settings on record: beneficial, 37° C., 18-24 h.

Values after ≈ are worked out from the molar mass of the structure shown.

`O=C(O)c1cn(C2CC2)c2cc(N3CCNCC3)c(F)cc2c1=O` [Ciprofloxacin, ciprofloxacin] displayed a minimum inhibitory concentration (MIC) of 250 µg/mL (≈ 754 µM).

Source of the values: patent US20200108115A1, “MEDICINAL COMPOSITION DERIVED FROM MULTIPLE PLANT SOURCES FOR GASTROINTESTINAL DISORDER” (priority 2017, published 2020).
